These are yes or no findings as the source states them, for the method shown. Binding seen in cells or lysates may run through a third protein. A yes stands for co-enrichment or nearness to the bait. Other partners may have been found.
Target: HA-BirA-tagged KINDLIN3 protein (human) (UniProt Q86UX7)
Assay: proximity labelling; BioID: NB4 BirA-KINDLIN3 neutrophils at steady state, 50 uM biotin overnight, lysis in 0.5% NP40 buffer, streptavidin Dynabeads, LC-MS/MS (label-free quantification); compared with NB4 WT with biotin and BirA-KINDLIN3 without biotin

Protein sequences, listed by entry. Tags and fused reporters are not part of them. Residues count along the entry.
UniProt Q86UX7, residues 2-667: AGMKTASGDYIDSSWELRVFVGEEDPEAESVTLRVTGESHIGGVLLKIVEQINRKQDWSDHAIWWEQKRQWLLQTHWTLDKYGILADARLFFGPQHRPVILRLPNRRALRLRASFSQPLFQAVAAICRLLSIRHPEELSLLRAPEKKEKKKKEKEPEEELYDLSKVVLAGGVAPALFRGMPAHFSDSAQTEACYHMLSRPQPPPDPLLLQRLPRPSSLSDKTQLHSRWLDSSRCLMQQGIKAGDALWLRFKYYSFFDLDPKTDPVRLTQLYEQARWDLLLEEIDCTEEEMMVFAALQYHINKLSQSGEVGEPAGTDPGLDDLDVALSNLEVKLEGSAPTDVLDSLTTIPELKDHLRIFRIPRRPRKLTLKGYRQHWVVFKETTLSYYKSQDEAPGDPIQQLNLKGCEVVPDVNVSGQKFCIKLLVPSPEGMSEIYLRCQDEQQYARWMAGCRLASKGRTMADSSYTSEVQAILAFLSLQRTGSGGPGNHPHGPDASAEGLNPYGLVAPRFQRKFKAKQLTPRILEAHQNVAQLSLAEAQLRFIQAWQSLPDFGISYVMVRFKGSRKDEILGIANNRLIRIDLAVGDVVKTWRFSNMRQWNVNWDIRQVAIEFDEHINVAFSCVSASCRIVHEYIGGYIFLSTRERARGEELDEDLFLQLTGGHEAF
UniProt Q13418: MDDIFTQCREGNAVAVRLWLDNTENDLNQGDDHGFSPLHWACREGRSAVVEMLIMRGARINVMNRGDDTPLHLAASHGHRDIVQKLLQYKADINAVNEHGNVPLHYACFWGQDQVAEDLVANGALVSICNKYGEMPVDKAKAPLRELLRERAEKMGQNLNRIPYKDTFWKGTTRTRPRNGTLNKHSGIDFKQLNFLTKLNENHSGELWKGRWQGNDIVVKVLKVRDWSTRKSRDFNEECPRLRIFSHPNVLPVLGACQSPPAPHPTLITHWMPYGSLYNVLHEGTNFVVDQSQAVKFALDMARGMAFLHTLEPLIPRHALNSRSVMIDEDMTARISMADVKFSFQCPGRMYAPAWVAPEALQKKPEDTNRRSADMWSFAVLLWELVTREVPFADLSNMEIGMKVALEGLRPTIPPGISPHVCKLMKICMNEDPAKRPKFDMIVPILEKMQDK
UniProt Q9Y490: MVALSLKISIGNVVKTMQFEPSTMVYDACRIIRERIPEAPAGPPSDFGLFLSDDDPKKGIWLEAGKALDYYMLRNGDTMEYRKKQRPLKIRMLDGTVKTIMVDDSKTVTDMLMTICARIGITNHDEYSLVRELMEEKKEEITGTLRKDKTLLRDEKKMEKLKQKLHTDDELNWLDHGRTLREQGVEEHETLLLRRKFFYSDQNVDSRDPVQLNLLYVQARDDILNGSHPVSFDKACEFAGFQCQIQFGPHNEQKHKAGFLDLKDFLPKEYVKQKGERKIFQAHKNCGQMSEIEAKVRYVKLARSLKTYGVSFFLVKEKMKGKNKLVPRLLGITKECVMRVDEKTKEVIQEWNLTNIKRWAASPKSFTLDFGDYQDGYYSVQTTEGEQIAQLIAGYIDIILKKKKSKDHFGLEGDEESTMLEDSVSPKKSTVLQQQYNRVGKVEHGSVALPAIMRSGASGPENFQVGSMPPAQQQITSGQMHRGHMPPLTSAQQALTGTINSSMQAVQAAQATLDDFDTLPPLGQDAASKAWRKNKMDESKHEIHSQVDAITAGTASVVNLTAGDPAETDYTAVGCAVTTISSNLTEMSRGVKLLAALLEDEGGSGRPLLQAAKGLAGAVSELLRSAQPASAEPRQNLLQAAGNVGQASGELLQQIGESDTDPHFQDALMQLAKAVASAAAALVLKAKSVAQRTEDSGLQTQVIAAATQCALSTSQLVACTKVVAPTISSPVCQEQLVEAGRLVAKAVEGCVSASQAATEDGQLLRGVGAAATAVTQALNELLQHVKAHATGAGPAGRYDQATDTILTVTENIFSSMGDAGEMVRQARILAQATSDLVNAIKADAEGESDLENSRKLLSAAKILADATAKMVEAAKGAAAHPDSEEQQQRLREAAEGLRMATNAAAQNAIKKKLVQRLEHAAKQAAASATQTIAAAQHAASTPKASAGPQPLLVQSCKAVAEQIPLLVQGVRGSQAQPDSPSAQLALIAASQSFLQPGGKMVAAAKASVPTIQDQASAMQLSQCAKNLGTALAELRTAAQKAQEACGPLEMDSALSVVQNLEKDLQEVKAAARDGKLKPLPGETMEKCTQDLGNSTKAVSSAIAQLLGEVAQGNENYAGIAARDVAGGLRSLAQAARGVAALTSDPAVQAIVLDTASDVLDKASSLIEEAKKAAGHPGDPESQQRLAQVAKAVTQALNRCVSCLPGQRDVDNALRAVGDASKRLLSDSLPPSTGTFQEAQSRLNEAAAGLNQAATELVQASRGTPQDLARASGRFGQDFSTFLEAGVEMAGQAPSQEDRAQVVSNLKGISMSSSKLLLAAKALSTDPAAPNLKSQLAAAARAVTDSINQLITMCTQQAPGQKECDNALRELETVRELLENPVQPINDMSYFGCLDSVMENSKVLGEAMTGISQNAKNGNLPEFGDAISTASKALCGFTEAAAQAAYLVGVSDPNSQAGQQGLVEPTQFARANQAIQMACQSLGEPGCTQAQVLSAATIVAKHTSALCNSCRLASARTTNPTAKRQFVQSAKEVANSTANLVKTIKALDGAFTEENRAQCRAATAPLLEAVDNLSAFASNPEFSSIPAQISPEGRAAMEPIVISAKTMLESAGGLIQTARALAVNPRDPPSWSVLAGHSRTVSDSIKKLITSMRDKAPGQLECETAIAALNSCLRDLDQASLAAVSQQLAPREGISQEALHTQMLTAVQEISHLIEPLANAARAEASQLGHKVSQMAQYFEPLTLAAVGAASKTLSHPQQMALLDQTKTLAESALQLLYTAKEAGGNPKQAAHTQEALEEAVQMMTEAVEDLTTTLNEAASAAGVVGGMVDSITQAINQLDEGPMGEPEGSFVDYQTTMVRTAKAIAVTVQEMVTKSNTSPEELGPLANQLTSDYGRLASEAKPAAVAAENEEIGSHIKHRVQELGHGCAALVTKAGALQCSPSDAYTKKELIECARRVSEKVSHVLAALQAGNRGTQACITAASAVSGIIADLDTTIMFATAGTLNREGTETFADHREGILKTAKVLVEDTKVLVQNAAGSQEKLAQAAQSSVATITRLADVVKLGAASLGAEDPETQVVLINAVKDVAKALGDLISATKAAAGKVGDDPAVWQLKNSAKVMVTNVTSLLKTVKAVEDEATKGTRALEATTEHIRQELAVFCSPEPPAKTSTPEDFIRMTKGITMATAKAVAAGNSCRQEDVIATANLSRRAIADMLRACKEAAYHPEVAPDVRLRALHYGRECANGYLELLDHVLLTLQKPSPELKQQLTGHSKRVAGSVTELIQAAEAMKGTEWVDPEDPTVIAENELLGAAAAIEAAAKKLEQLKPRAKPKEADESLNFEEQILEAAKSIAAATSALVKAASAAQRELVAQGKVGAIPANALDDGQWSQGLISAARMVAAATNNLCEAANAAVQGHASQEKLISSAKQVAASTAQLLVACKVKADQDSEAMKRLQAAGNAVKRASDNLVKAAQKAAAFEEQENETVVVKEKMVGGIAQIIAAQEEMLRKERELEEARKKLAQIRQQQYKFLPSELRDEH

binding | Substance
binds | integrin-linked kinase (ILK) (from UniProt Q13418 1-452)
binds | TALIN1 (from UniProt Q9Y490 1-2541)

Source: PMC10937362
